Measured values taken from PMC8216332.
Results are given in words; binding and its absence hold for the method and conditions named. Binding seen in cells or lysates may run through a third protein. A yes stands for co-enrichment or nearness to the bait. Other partners may have been found. Tags and fused reporters may be left off the sequences shown.

Molecular target: T1, small regulatory polypeptide of amino acid response (SPAAR), HA tagged (human)
T1 sequence: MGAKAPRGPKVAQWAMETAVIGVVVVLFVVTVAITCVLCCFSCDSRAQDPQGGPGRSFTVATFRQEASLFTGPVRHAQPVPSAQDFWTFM
Test: affinity purification with mass spectrometry; anti-HA immunoprecipitation from HUVECs expressing LV-SPAAR-HA; controls: anti-IgG, LV-Null and untagged LV-SPAAR cells; two replicates; partners defined by detection in both replicates and two-fold enrichment over controls

**Q.** With SYNE1 (from UniProt Q8NF91 1-8797) as the substance, how does the binding read?
**A.** The binding was “binds”.
